Results published in PubChem BioAssay AID588323 (National Center for Advancing Translational Sciences (NCATS), 2011).
Listed are the inconclusive results; actives and inactives stand elsewhere. Calls come from the whole dose curve; as a rule, active = well fitted curve in the direction sought with a large enough effect; inconclusive = small, poorly fitted or top-dose-only effect, or another doubt; inactive = no such curve, though single readings can be large or run the other way. Where the call is inconclusive, the potency comes from a doubtful curve fit.

assay: Confirmatory Assay to Find Inhibitors of T. brucei phosphofructokinase: Cytotoxictity in MRC5; conditions: MRC5 cytotoxicity, cell viability
From the text: Various species of the protozoan family Trypanosomatidae are responsible for a range of serious human diseases in tropical and subtropical areas of the world. […] Many of the disorders caused by trypanosomatids are fatal if left untreated, but most currently used drugs are inefficient and toxic.
Oxidative metabolism involving the mitochondrial tricarboxylic acid cycle and oxidative phosphorylation are repressed in these parasites, and recent RNA interference (RNAi) experiments have shown that even partial depletion of certain individual glycolytic enzymes can lead to the death of cultured parasites. One such glycolytic enzyme, phosphofructokinase (PFK), catalyzes the formation of fructose-1,6-bisphosphate (F1,6BP) and ADP from fructose-6-phosphate (F6P) and ATP, and in many metabolic circumstances makes an important contribution to the control of flux through the glycolytic pathway. […]
MRC5 cells were dispensed into white solid 1536-microwell plates in 5 uL media (high glucose DMEM, 10% FBS) with a Thermo Multidrop. […] Cytotoxicity was assessed by adding 2.5 uL of Cell-Titer Glo (Promega, Madison, WI) via Multidrop, incubating at room temperature for 10 min and reading luminescence on the Perkin Elmer ViewLux using a 1 second exposure and 1x binning. […]

| SMILES | Potency |
| --- | --- |
| CN(C)c1cccc(NS(=O)(=O)c2ccc(NC(=O)Cc3ccc(Cl)c(Cl)c3)cc2)c1 | inconclusive: 35.3 µM [cytotoxic, single point] |
